Binding data for two substances are collected here from publication PMC7868569.

By UniProt entry, the sequences of proteins in these tests, tags left out.
UniProt Q04207: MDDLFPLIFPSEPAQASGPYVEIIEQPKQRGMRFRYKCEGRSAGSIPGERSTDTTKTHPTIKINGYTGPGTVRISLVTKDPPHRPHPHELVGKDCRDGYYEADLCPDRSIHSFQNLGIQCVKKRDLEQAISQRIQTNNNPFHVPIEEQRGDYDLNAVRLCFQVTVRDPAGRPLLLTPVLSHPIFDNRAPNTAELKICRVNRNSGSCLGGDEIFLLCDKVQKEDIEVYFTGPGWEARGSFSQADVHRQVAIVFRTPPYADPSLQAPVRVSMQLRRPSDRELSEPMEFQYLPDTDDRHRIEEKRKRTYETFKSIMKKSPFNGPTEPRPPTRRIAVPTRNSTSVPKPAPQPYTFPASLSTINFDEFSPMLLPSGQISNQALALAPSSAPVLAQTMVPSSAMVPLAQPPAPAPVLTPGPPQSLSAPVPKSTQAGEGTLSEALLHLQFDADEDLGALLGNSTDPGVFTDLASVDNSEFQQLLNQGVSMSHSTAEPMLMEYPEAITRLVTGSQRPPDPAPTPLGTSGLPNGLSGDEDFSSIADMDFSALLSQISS
UniProt P63158: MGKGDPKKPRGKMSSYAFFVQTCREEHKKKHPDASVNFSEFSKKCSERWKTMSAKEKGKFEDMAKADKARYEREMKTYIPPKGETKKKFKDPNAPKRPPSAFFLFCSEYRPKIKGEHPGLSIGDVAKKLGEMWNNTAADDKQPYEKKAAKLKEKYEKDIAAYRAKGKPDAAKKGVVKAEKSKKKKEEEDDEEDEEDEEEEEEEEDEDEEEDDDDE

Results are given in words; binding and its absence hold for the method and conditions named. Binding seen in cells or lysates may run through a third protein. Some binding calls cover weakened binding; strength is not graded here. For some of these results: Sequences can lack the tags named with a protein.

Common to all, as to test: co-IP; endogenous proteins in RAW264.7 cell extracts; IP with anti-HMGB1, anti-HDAC3 or anti-NF-κB p65 (CST, 1:500), IgG as parallel group, protein A/G-agarose, washed in PBS, Western blot; cells untreated, LPS (0.2 μg/ml), LPS plus 15 μM Chr; also after siNC or HDAC3 siRNA
Assay [1] addresses T1, histone deacetylase 3 (HDAC3) (mouse (endogenous in RAW264.7)) (UniProt O88895).
T1 sequence: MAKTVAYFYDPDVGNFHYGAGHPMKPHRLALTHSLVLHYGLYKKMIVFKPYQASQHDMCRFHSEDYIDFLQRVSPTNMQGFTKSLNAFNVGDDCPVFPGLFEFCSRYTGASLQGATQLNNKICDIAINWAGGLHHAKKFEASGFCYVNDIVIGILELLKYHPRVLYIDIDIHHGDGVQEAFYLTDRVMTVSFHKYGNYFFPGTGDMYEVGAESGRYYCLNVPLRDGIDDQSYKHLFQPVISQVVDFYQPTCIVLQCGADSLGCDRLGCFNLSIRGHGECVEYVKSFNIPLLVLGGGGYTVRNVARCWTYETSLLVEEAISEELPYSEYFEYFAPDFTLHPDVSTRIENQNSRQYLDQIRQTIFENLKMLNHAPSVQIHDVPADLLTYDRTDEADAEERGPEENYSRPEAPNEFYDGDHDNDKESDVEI

Assay [2] addresses nuclear transcription factor-kappa B p65 (NF-κB p65) (mouse (endogenous in RAW264.7)) (UniProt Q04207).
Assay [3] has as its target high mobility group box 1 (HMGB1) protein (mouse (endogenous in RAW264.7)) (UniProt P63158).

For the substance “high mobility group box 1 (HMGB1) protein (from UniProt P63158 1-215)”, the binding entry in assay [1] and in assay [2] was “binds” in each case.
Take “nuclear transcription factor-kappa B p65 (NF-κB p65) (from UniProt Q04207 1-549)”: the binding result in assay [1] and in assay [3] was “binds” in each case.
